Here are results for two molecules from US20020058798A1 (YEDA RESEARCH AND DEVELOPMENT, published 2002).

Assay [1] deals with T1, MORT-1 fragment, residues 1-117 (human).
T1 sequence: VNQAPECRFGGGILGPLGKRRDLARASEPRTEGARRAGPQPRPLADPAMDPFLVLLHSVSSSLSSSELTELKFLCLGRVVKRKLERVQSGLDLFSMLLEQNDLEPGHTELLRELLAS
Put plainly: yeast two-hybrid beta-galactosidase filter assay (SFY526); row = Gal4 DNA-binding-domain hybrid, column = activation-domain hybrid; ++ = strong color within 30 min.

Assay [2] deals with T2, MORT-1 (full) (human).
T2 sequence: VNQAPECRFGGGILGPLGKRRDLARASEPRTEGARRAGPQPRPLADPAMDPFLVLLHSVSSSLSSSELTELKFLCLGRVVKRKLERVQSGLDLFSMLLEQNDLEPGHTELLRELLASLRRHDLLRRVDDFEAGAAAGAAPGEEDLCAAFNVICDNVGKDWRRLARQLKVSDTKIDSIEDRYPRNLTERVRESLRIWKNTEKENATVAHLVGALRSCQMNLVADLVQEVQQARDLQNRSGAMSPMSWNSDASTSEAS
Kind of assay: yeast two-hybrid beta-galactosidase filter assay (SFY526); row = Gal4 DNA-binding-domain hybrid, column = activation-domain hybrid; + = strong color within 90 min.

Assay [3] addresses T2, MORT-1 (full) (human). Kind of assay: yeast two-hybrid test.

No constants are given. Whether binding was seen depends on the method and setting. Some results given as binding are weak or reduced against the parent protein; the word gives no strength.

B1: MORT-1 (full) (other)
chain: T2 sequence
notes: The Gal4 part is not written as a piece; Met 49 is a possible translation start; also called HF1; HF-1
Regarding B1, in assay [1], the binding result is “binds”.

B2: MORT-1 fragment, residues 1-117 (protein)
chain: T1 sequence
In the case of B2, the binding entry in the assay with MORT-1 (full) (human) [2] and in the assay with MORT-1 (full) (human) [3] was “binds” in each case.
